Publication doi:10.1101/2025.06.10.658782
No constants are given. Whether binding was seen depends on the method and setting. Binding seen in cells or lysates may run through a third protein. Some results given as binding are weak or reduced against the parent protein; the word gives no strength.

By UniProt entry, the sequences of proteins in these tests, tags left out.
UniProt P11166: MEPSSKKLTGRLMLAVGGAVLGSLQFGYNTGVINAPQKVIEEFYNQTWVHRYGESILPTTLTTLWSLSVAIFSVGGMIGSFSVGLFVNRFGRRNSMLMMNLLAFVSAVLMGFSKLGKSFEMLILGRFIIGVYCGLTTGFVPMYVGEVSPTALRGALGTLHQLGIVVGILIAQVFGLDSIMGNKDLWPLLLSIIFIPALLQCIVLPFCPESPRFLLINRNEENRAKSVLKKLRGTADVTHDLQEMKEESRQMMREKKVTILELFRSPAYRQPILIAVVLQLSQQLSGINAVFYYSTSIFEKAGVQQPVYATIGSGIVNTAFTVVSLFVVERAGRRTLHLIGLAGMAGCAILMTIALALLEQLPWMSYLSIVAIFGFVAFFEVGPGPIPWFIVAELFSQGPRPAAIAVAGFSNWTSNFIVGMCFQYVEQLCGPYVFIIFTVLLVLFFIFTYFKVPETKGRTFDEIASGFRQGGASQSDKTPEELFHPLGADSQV
UniProt P62820: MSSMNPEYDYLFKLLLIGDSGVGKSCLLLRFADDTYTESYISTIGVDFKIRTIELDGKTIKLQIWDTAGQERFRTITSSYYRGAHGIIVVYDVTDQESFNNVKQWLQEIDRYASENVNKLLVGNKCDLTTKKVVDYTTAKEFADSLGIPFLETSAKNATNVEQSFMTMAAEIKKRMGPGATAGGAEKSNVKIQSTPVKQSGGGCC
UniProt P20339: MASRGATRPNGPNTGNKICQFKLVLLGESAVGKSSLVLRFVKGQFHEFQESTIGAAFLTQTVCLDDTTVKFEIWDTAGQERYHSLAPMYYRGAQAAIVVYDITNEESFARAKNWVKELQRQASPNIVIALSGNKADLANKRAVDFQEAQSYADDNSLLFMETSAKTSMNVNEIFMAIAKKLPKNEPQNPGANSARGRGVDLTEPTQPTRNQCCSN

Molecular target: Flag-GLUT1 (glucose transporter 1) (human (HeLa cDNA library)) (UniProt P11166)
Experiment: co-IP

Row | Substance | binding
1 | Rab1A (from UniProt P62820 1-205) | binds
2 | Rab5A (from UniProt P20339 1-215) | binds
